From paper PMC7862700
The entries are a selection whose mix differs from that of the whole data set. For some of these results: At the low end of the ranking the order means little. Some of the results follow. For some of these results: The exact form of the protein is not confirmed.

Columns and labels:
ETS1 = biological target: T1, ETS1 (UniProt P14921); assay: DAPPL (digital affinity profiling via proximity ligation, sequencing); conditions: 10 mM Tris-HCl pH 7.5, 50 mM NaCl, 1 mM DTT, 4% glycerol, room temperature, 30 min; GST-TFs on glutathione beads, 16-mer random dsDNA library, 0.1% …; high values mean tight binding; double strand, one strand shown; scale: fold enrichment (6-mer frequency, TF over GST control)
T1 sequence: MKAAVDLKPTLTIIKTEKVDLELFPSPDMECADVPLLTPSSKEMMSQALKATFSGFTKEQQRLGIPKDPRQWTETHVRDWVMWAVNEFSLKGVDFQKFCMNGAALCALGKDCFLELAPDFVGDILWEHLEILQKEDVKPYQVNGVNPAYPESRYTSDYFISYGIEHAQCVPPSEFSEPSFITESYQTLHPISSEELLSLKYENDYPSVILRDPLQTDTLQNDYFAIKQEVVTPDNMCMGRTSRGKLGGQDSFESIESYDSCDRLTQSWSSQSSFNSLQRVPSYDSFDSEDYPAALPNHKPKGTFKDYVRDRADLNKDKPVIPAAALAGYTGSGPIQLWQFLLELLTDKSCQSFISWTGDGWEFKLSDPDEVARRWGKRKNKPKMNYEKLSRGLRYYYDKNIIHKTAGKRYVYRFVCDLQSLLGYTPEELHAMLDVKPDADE

SPDEF = biological target: T2, SPDEF (UniProt O95238); assay: as above; conditions: 10 mM Tris-HCl pH 7.5, 50 mM NaCl, 1 mM DTT, 4% glycerol, room temperature, 30 min; GST-TFs on glutathione beads, 16-mer random dsDNA library, 0.1% …; high values mean tight binding; double strand, one strand shown; scale: fold enrichment (6-mer frequency, TF over GST control)
T2 sequence: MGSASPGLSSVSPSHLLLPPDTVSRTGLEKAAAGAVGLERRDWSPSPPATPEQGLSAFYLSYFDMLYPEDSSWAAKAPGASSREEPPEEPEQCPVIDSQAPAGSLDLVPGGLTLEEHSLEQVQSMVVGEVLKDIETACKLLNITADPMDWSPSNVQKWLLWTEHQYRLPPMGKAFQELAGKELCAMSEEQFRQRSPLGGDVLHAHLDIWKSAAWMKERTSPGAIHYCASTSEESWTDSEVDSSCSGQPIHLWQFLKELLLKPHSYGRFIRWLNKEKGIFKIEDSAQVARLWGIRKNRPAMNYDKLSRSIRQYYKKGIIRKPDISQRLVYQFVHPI

Sequence | binding signal (ETS1) | binding signal (SPDEF)
CATAAC | 1.21 | 1.15
AGCTTG | 0.981 | 0.831
ATCTTA | 1.07 | 1.12
AGATGT | 0.984 | 0.817
CTGCGG | 1.1 | 0.983
GTCTAA | 1.05 | 0.975
GTAGCT | 1.12 | 0.923
CCGCCG | 1.24 | 1.34
TTGACG | 1.11 | 0.945
TTACGG | 1.29 | 1.32
TAGAAT | 1.12 | 1.07
CTTCCC | 2.15 | 2.14
TCAGCA | 1.08 | 0.971
TATCAA | 1.06 | 0.947
AATGGA | 0.989 | 0.952
TCACTG | 1.25 | 1.16
CATTGC | 1.03 | 0.954
TGCGGC | 0.932 | 0.991
TCAAAA | 1.16 | 1.06

Record cards, as listed above. Order of values: binding signal (ETS1)	binding signal (SPDEF)
CATTGC is entered as 1.03	0.954
TATCAA is entered as 1.06	0.947
CTGCGG is entered as 1.1	0.983

(cont.)

Sequence | binding signal (ETS1) | binding signal (SPDEF)
AATATT | 1.28 | 1.25
CCTAAT | 1.25 | 1.36
CGTCAT | 0.962 | 0.984
GCAACC | 1.05 | 1.13
TGGCCG | 1.06 | 0.979
ATCGCA | 1.06 | 0.993
TTGTAT | 1.27 | 1.41
GCGATA | 1.1 | 0.97
CACCGG | 1.05 | 1.08
ACAGGA | 1.06 | 1.37
ATGCTC | 1.43 | 1.43
CTCCCC | 1.47 | 1.28
ATCAGA | 0.939 | 0.937
AACTGT | 1.03 | 0.928
AATGAA | 1.16 | 1.04
GCGCTT | 1.21 | 1.2
AGCAAA | 1.01 | 0.973
TGGCGC | 0.848 | 0.911
TTAAGA | 1.1 | 1.06
